Taken from: PubChem BioAssay AID1224828 (NIAID, 2016)
Assay: 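Knock-downs that increase or decrease LPS-induced p65 nuclear translocation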 (primary screen). Cells: mouse RAW264.7 G9 macrophage reporter cells (GFP-p65, Tnf promoter-mCherry). Reagents: siRNA pool against mouse genes, 100 nM. Timing: 2 days siRNA transfection, then 40 min LPS before fixation. Treatment: LPS (Salmonella minnesota R595) at 10 ng/ml. Measurement: 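Microscopy ratio of nuclear to perinuclear-ring GFP-p65 signal, scaled to the plate median; gene score is the average of two replicate robust z-scores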. Direction: p65 translocation robust z-score: higher = more nuclear NF-kappaB p65 after LPS than the plate median; nuclear/cytoplasmic p65 ratio: higher = more nuclear NF-kappaB p65. Active means: 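Active if robust z is above 3.3 (negative regulators) or below -1.56, the Tlr4 control median (positive regulators); activity score 50 or more; control wells not called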. Meaning of the calls: active = hit (p65 shift raised or lowered); inactive = no clear change.
This is a random part of about 17,000 reagents tested. 762 of all reagents (4.5%) were called active. 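Active calls include both raised and lowered p65 entry, mostly lowered; wells with fewer than 50 cells lack a z-score.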 Raw values are not corrected between plates. Some reagents were tested in more than one well and are listed for each. No sequences are given here.

Target gene | p65 translocation robust z-score | nuclear/cytoplasmic p65 ratio, rep 1 | nuclear/cytoplasmic p65 ratio, rep 2 | low cell count flag | call
Mrgpra5 (GeneID 404235) | -1.13 | 1.62 | 1.4 | enough cells to score | inactive
Snx3 (GeneID 54198) | 1.64 | 1.61 | 1.44 | enough cells to score | inactive
B9d2 (GeneID 232987) | -0.07 | 1.55 | 1.85 | enough cells to score | inactive
Gigyf1 (GeneID 57330) | 1.41 | 1.65 | 1.38 | enough cells to score | inactive
Krt81 (GeneID 64818) | -1.55 | 1.3 | 1.15 | enough cells to score | inactive
Cysrt1 (GeneID 67859) | – | 1.4 | 1.16 | fewer than 50 cells per well; well left out of scoring | inactive
Pafah1b3 (GeneID 18476) | 0.13 | 1.42 | 1.47 | enough cells to score | inactive
4931432E15Rik (GeneID 70991) | – | 1.28 | 1.11 | fewer than 50 cells per well; well left out of scoring | inactive
Calcrl (GeneID 54598) | – | 1.66 | 1.66 | fewer than 50 cells per well; well left out of scoring | inactive
Pde8b (GeneID 218461) | -0.41 | 1.57 | 1.54 | enough cells to score | inactive
Clps (GeneID 109791) | 0.07 | 1.58 | 1.82 | enough cells to score | inactive
Atxn2l (GeneID 233871) | – | 1.34 | 1.69 | fewer than 50 cells per well; well left out of scoring | inactive
Rbm4b (GeneID 66704) | 0.26 | 1.33 | 1.28 | enough cells to score | inactive
Ear10 (GeneID 93725) | – | 1.32 | 1.3 | fewer than 50 cells per well; well left out of scoring | inactive
4930539J05Rik (GeneID 319587) | – | 1.59 | 1.73 | fewer than 50 cells per well; well left out of scoring | inactive
Pon3 (GeneID 269823) | 0.4 | 1.55 | 1.46 | enough cells to score | inactive
Polb (GeneID 18970) | -0.28 | 1.41 | 1.42 | enough cells to score | inactive
Rab5if (GeneID 67388) | – | 1.42 | 1.47 | fewer than 50 cells per well; well left out of scoring | inactive
Syt3 (GeneID 20981) | -0.32 | 1.32 | 1.19 | enough cells to score | inactive
Kynu (GeneID 70789) | – | 1.51 | 1.43 | fewer than 50 cells per well; well left out of scoring | inactive
Rap1a (GeneID 109905) | -0.53 | 1.43 | 1.45 | enough cells to score | inactive
Cd79b (GeneID 15985) | 1.13 | 1.59 | 1.52 | enough cells to score | inactive
A330035P11Rik (GeneID 319727) | 1.91 | 1.48 | 1.79 | enough cells to score | inactive
Slc36a4 (GeneID 234967) | – | 1.25 | 0.968 | fewer than 50 cells per well; well left out of scoring | inactive
Ptrh1 (GeneID 329384) | 0.52 | 1.49 | 1.31 | enough cells to score | inactive
Slc31a1 (GeneID 20529) | – | 1.02 | 1.29 | fewer than 50 cells per well; well left out of scoring | inactive
Zfp92 (GeneID 22754) | 0.42 | 1.52 | 1.25 | enough cells to score | inactive
Muc5b (GeneID 74180) | 0.42 | 1.84 | 1.66 | enough cells to score | inactive
Cyp39a1 (GeneID 56050) | 0.47 | 1.65 | 1.85 | enough cells to score | inactive
Csde1 (GeneID 229663) | -0.23 | 1.41 | 1.36 | enough cells to score | inactive
Gabrq (GeneID 57249) | 1.05 | 1.6 | 1.48 | enough cells to score | inactive
Ddost (GeneID 13200) | 1.35 | 1.43 | 1.77 | enough cells to score | inactive
Ppan (GeneID 235036) | -0.91 | 1.37 | 1.29 | enough cells to score | inactive
Tdrd3 (GeneID 219249) | – | 1.25 | 1.2 | fewer than 50 cells per well; well left out of scoring | inactive
Il1bos (GeneID 329514) | -0.25 | 1.42 | 1.48 | enough cells to score | inactive
Opn4 (GeneID 30044) | -1.96 | 1.19 | 1.35 | enough cells to score | active
Pole3 (GeneID 59001) | -0.33 | 1.33 | 1.16 | enough cells to score | inactive
Inca1 (GeneID 103844) | -0.66 | 1.55 | 1.54 | enough cells to score | inactive
Kcnd1 (GeneID 16506) | 0.8 | 1.65 | 1.42 | enough cells to score | inactive
Dpysl2 (GeneID 12934) | 0.04 | 1.41 | 1.37 | enough cells to score | inactive
Fam161a (GeneID 73873) | -2.14 | 1.01 | 1.02 | enough cells to score | active
Mup1 (GeneID 17840) | 0.72 | 1.86 | 1.74 | enough cells to score | inactive
Or5h24-ps1 (GeneID 404309) | 0.54 | 1.69 | 1.25 | enough cells to score | inactive
Plxna3 (GeneID 18846) | -0.85 | 1.35 | 1.32 | enough cells to score | inactive
Lamtor3 (GeneID 56692) | 1.01 | 1.74 | 1.5 | enough cells to score | inactive
Cdc16 (GeneID 69957) | 0.9 | 1.65 | 1.44 | enough cells to score | inactive
Or13a22 (GeneID 258956) | -0.62 | 1.33 | 1.22 | enough cells to score | inactive
Auts2 (GeneID 319974) | -1.24 | 1.16 | 1.29 | enough cells to score | inactive
Cyp2a12 (GeneID 13085) | 0.27 | 1.67 | 1.76 | enough cells to score | inactive
Pik3cg (GeneID 30955) | -1.03 | 1.6 | 1.19 | enough cells to score | inactive
Pik3cg (GeneID 30955) | -0.33 | 1.5 | 1.5 | enough cells to score | inactive
Dnaaf2 (GeneID 109065) | -0.13 | 1.45 | 1.5 | enough cells to score | inactive
Sin3b (GeneID 20467) | 0.69 | 1.62 | 1.34 | enough cells to score | inactive
Gpc6 (GeneID 23888) | 0.6 | 1.83 | 1.55 | enough cells to score | inactive
Prrt3 (GeneID 210673) | -0.27 | 1.59 | 1.45 | enough cells to score | inactive
Ajuba (GeneID 16475) | 0.42 | 1.62 | 1.48 | enough cells to score | inactive
Rpl26 (GeneID 19941) | -1.58 | 1.16 | 1.08 | enough cells to score | active
Rgs4 (GeneID 19736) | – | 1.41 | 1.13 | fewer than 50 cells per well; well left out of scoring | inactive
Taf6 (GeneID 21343) | -0.06 | 1.49 | 1.53 | enough cells to score | inactive

Reformatted: entries from further up.
Lamtor3 (GeneID 56692)
- p65 translocation robust z-score: 1.01
- nuclear/cytoplasmic p65 ratio, rep 1: 1.74
- nuclear/cytoplasmic p65 ratio, rep 2: 1.5
- low cell count flag: enough cells to score
- call: inactive

Cdc16 (GeneID 69957)
- p65 translocation robust z-score: 0.9
- nuclear/cytoplasmic p65 ratio, rep 1: 1.65
- nuclear/cytoplasmic p65 ratio, rep 2: 1.44
- low cell count flag: enough cells to score
- call: inactive

Or13a22 (GeneID 258956)
- p65 translocation robust z-score: -0.62
- nuclear/cytoplasmic p65 ratio, rep 1: 1.33
- nuclear/cytoplasmic p65 ratio, rep 2: 1.22
- low cell count flag: enough cells to score
- call: inactive
